Values of other authors as cited in patent US8562804B2 (priority 2006, dated 2013).
At least one compound was matched to its structure with a doubt left.

Conditions: cited from earlier work

Row | Structure (SMILES) | Fully ionized mobility
1 | O=S(=O)(O)CCN1CCOCC1 [MES, 2-(N-morpholino)ethanesulfonic acid] | 28.0E−9 m^2/Vs
2 | O=S(=O)(O)CCCN1CCOCC1 [MOPS, 3-(N-morpholino)propanesulfonic acid] | 26.9E−9 m^2/Vs
3 | NC(=O)CNCCS(=O)(=O)O [ACES, N-(2-Acetamido)-2-aminoethanesulfonic acid] | 31.3E−9 m^2/Vs
